37 targets from the supplement of paper PMC12819154, “High-throughput peptide-centric local stability assay extends protein–ligand identification to membrane proteins, tissues and bacteria” (Nature Structural & Molecular Biology, 2025) can be followed below.

The chains behind the UniProt entries cited, without tags or fusion partners. Where a name states a change or a piece, a line headed by the entry shows the natural chain unless it says otherwise.
UniProt P26928: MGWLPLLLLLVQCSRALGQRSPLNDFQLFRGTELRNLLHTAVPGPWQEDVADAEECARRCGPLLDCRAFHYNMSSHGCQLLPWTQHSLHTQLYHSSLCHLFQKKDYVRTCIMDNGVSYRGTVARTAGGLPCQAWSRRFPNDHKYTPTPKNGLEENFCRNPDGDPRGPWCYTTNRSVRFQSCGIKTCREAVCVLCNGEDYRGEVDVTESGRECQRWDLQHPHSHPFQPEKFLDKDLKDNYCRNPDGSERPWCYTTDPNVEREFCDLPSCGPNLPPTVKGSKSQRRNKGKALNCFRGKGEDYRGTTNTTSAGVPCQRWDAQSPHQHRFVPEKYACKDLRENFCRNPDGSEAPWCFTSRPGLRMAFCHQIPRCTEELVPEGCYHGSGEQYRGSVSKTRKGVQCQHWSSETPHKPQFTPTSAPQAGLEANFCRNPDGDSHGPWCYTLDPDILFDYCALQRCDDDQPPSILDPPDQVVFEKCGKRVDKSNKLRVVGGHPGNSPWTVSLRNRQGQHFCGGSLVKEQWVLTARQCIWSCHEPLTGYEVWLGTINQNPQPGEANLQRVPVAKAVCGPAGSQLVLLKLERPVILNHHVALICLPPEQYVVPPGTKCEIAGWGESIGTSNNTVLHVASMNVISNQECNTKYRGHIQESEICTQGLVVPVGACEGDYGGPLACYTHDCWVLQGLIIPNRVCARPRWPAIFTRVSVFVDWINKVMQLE
UniProt P19639: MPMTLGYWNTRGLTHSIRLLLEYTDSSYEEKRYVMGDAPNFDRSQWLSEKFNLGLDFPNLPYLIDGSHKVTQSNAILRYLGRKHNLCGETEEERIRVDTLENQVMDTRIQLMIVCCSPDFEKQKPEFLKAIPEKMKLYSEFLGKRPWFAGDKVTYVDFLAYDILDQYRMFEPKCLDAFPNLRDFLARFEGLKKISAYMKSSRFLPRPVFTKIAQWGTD
UniProt P08032: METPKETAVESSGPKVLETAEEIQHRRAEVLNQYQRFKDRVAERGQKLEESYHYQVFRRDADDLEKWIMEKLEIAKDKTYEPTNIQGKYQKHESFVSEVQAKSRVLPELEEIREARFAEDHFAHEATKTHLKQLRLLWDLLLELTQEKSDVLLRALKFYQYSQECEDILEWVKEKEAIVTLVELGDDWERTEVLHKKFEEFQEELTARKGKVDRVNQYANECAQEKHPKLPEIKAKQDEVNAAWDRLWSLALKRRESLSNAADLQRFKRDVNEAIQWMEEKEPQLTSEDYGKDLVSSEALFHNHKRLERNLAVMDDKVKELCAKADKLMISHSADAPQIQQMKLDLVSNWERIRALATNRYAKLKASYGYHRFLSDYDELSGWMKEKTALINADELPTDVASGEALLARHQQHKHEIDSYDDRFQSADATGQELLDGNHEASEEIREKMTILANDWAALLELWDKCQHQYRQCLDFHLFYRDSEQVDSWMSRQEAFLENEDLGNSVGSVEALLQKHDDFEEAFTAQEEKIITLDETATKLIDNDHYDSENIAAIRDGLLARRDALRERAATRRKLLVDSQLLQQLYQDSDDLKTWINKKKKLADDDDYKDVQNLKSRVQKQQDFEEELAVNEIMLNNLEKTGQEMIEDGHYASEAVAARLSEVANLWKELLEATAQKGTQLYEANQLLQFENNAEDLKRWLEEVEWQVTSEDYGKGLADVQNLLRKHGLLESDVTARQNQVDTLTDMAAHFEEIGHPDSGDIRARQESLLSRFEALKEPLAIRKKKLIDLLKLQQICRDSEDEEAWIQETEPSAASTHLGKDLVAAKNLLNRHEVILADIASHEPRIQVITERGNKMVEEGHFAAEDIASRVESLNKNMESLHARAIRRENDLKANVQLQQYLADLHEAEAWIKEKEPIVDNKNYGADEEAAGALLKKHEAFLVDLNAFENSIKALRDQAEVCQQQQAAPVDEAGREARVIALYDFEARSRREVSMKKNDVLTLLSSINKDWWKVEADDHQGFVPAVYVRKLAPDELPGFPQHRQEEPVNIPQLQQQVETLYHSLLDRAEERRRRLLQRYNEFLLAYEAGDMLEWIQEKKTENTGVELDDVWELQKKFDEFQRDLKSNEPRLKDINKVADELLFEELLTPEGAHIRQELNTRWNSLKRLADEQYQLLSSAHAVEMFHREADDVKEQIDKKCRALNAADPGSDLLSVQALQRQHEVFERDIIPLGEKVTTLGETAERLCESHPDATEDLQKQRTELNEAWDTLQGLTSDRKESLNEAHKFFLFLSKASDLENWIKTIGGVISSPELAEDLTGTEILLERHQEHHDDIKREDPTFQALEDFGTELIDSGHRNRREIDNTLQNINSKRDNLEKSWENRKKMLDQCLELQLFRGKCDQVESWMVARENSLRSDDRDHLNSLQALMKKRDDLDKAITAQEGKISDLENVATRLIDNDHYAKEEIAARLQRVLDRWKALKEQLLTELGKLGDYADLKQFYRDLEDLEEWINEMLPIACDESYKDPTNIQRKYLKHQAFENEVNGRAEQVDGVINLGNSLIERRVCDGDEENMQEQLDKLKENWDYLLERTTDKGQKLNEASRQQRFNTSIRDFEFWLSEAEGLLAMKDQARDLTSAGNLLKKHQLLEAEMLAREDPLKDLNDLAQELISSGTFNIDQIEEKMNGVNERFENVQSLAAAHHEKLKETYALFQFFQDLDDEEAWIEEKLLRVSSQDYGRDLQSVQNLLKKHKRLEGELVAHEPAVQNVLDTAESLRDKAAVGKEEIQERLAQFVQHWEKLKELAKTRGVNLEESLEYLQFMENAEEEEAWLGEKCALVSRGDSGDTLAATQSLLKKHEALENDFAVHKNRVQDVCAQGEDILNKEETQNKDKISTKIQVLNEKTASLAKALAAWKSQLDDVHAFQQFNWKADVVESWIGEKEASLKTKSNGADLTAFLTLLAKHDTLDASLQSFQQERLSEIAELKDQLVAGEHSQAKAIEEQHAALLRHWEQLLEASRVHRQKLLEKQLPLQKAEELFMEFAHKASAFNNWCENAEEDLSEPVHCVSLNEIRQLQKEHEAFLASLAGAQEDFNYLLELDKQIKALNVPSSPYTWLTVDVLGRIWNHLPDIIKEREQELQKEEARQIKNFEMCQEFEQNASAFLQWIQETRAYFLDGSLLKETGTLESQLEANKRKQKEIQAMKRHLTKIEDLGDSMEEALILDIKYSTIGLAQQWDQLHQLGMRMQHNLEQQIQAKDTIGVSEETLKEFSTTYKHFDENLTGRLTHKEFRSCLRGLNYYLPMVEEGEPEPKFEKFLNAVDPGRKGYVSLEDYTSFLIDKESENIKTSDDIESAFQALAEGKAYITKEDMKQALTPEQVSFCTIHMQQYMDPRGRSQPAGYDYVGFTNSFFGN
UniProt P24472: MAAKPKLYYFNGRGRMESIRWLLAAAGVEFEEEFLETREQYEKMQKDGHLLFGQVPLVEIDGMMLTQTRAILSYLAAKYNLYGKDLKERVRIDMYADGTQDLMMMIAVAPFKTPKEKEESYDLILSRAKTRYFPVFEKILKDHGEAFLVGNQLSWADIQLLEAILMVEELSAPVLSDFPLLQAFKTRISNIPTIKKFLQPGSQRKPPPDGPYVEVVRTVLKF
UniProt P03893: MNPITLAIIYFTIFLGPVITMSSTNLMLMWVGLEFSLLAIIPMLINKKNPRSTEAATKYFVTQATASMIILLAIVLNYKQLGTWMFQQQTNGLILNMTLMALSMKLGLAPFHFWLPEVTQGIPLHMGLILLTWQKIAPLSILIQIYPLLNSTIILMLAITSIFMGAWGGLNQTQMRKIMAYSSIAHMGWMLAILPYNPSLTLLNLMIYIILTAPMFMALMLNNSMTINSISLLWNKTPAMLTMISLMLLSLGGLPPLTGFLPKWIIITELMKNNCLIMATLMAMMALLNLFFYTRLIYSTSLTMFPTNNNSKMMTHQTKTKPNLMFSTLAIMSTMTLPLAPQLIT
UniProt P26369, whole entry: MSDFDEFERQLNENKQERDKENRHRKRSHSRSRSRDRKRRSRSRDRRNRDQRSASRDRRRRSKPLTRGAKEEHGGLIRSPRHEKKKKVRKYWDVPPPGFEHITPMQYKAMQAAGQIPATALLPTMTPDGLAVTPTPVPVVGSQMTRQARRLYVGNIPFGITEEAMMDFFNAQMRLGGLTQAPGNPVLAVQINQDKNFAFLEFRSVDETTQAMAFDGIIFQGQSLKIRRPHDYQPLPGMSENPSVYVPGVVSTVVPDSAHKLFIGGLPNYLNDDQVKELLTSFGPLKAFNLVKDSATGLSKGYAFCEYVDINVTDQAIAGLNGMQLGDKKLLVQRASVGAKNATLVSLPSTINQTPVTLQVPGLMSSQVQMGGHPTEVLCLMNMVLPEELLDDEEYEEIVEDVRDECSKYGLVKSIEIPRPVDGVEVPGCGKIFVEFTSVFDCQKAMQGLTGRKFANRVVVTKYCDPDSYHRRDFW
UniProt P17665: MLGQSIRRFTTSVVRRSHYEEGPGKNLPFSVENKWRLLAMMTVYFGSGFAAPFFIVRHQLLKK
UniProt P26638: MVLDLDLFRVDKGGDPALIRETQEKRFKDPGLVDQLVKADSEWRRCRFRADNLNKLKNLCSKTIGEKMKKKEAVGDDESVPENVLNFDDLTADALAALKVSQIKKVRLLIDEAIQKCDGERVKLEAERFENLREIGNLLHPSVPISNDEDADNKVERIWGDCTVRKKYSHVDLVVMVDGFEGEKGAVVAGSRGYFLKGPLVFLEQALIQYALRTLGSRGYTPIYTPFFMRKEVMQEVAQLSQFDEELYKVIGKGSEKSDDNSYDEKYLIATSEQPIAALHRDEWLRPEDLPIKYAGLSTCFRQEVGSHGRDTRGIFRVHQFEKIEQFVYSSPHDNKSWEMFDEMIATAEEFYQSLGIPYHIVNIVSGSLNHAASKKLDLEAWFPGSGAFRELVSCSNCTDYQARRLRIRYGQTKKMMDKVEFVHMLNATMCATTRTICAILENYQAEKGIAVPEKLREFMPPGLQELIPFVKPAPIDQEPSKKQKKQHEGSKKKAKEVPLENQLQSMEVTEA
UniProt P20065: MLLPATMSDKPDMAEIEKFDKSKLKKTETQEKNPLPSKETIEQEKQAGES
UniProt P21279, whole entry: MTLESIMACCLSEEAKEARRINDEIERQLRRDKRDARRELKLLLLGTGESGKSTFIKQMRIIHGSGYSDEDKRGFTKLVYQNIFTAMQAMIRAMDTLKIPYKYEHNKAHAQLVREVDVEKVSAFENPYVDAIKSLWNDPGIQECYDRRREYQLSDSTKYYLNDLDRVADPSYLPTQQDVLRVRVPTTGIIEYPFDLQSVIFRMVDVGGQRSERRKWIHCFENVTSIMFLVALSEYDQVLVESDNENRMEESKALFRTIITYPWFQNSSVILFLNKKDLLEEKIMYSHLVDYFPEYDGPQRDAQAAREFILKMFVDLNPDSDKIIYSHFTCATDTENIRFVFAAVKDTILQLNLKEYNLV
UniProt P09103: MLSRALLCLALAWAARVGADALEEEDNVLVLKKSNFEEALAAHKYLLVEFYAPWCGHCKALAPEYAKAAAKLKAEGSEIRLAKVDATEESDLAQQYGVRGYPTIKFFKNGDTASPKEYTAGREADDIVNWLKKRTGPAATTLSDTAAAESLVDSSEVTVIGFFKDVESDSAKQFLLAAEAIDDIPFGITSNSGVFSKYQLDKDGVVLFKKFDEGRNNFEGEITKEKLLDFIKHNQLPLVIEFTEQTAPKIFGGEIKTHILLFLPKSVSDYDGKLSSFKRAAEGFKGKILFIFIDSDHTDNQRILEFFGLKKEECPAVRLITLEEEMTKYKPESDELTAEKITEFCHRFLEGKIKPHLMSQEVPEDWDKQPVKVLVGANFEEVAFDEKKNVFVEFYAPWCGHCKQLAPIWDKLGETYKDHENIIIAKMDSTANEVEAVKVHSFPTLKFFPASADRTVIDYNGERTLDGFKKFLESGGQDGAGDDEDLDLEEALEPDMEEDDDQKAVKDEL
UniProt P03958: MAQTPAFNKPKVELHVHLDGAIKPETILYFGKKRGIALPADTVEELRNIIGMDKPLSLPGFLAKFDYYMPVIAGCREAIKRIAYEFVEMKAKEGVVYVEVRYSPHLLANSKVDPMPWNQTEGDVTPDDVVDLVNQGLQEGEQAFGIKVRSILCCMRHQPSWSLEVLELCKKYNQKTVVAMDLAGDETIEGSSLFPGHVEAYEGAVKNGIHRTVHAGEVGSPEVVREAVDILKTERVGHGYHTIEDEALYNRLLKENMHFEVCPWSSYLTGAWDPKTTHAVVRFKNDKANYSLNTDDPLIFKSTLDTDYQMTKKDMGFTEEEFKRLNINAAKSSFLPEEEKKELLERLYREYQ
UniProt P23492: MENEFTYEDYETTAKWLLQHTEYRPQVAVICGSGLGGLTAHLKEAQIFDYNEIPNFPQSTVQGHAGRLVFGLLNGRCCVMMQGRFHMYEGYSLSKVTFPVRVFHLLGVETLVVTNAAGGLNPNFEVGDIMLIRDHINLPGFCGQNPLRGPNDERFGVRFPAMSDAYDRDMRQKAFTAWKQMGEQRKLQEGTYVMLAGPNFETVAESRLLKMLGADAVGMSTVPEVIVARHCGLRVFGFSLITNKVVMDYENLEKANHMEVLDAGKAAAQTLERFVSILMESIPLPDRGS

The list shows a part of the results. Most entries show no effect beyond the scatter of the controls.

Compound in this assay: CN[C@@H]1C[C@H]2O[C@@](C)([C@@H]1OC)n1c3ccccc3c3c4c(c5c6ccccc6n2c5c31)C(=O)NC4 [staurosporine]
As to the kind of experiment: log2 fold change of pooled soluble protein (PISA), ligand vs vehicle (log2 ratio); higher = more thermally stabilized. Particulars: ligand concentration: 20 uM; assay format: PISA pool 52.9/55.5/58.6 C.
UniProt P26928: the “log2 fold change of pooled soluble protein” value (“log2 fold change” for short) is 0.29.

On to UniProt P26516, for which the “log2 fold change” value stood at 0.136.

UniProt P19639: the “log2 fold change” value was -0.184.

P17879;Q61696: the “log2 fold change” value is -0.121.

With UniProt P14733, the “log2 fold change” value is -0.0468.

As for UniProt P08032, the “log2 fold change” value was found to be 0.0337.

UniProt P17182: the “log2 fold change” value is -0.0921.

In the case of UniProt P24472, the “log2 fold change” value was -0.0801.

Regarding UniProt P08249, the “log2 fold change” value was -0.165.

As for UniProt P03893, the “log2 fold change” value was -0.144.

As for UniProt P11588, the “log2 fold change” value is -0.113.

For the target UniProt P16882, the “log2 fold change” value came to 0.0552.

Turning to UniProt P26369, the “log2 fold change” value is -0.0481.

Turning to UniProt P04627, the “log2 fold change” value is -0.0457.

For UniProt P06801, the “log2 fold change” value was found to be 0.0181.

For the target UniProt P17665, the “log2 fold change” value worked out at 0.0775.

Turning to UniProt P12025, the “log2 fold change” value came out at 0.108.

With UniProt P16675, the “log2 fold change” value is -0.471.

With UniProt P10852, the “log2 fold change” value amounted to 0.00636.

As to UniProt P26638, the “log2 fold change” value was -0.111.

Consider UniProt P26350, for which the “log2 fold change” value was 0.0882.

Take UniProt P20065: the “log2 fold change” value came out at 0.0671.

As to UniProt P15379, the “log2 fold change” value was found to be 0.361.

Take UniProt P11352: the “log2 fold change” value came to 0.0885.

On to UniProt P12791, for which the “log2 fold change” value is 0.0653.

As to UniProt P07356, the “log2 fold change” value is -0.0388.

Consider UniProt P24270, for which the “log2 fold change” value was -0.199.

As to UniProt P22437, the “log2 fold change” value was -0.101.

For the target UniProt P21279, the “log2 fold change” value was -0.207.

UniProt P10404: the “log2 fold change” value was -0.204.

For UniProt P09103, the “log2 fold change” value was determined as 0.015.

For the target UniProt P03958, the “log2 fold change” value was found to be 0.068.

Take UniProt P23492: the “log2 fold change” value is -0.0499.

For the target UniProt P23198, the “log2 fold change” value was -0.0274.

Regarding UniProt P19973, the “log2 fold change” value amounted to 0.151.

For UniProt P14246, the “log2 fold change” value was -0.137.

As to UniProt P06800, the “log2 fold change” value is -0.0447.
